Microarray screen: hit calls

Calls as published in the ROBIN set (doi:10.1002/anie.202211358).

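Compounds were printed on reactive glass slides in duplicate spots, a dye-labelled oligonucleotide was laid over them, and the fluorescence left after washing was read. For the PreQ1, TPP and SAM-II riboswitches the laboratory earlier reported (doi:10.1038/s41467-019-09493-3) 1 µM RNA, 2 h, and a rule that included a mean Z-score above 3 (spot signal-to-noise against the whole library), a score well above that on a control array, and duplicate spots agreeing (coefficient of variation under 100). The data file gives only the calls; its cut-offs may differ, and compounds hitting several targets are kept. The calls come from the array alone, and fixing a compound to the slide can hide its binding.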 “Y” means called a hit, “N” means screened and not called a hit. The compounds are a random part of those screened. A target missing from an entry has no call listed here.

Targets (5′ to 3′):
T1: TPP riboswitch RNA three-way junction, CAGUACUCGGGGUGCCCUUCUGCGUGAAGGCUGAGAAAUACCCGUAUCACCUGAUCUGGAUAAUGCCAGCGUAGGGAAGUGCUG. Hit rate about 0.7% of about 24,000 compounds.
T2: PreQ1 riboswitch RNA pseudoknot, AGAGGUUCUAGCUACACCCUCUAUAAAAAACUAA. From B. subtilis. Hit rate about 0.7% of about 24,000 compounds.
T3: SAM-II riboswitch RNA pseudoknot, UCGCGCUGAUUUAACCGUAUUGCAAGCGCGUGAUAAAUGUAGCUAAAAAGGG. Hit rate about 1% of about 21,000 compounds.

structure: CSc1ccc(C2C(C#N)=C(N)Oc3cc4c(cc32)OCO4)cc1 (stereo not given)
T1: N
T2: N
T3: N

structure: CC(C)c1ccc(N2CC(=O)C(c3nc4ccccc4n3C)=C2N)cc1
T1: N
T2: N

structure: Cn1c(C2=C(N)N(c3ccc(Cl)c(Cl)c3)CC2=O)nc2ccccc21
T1: N
T2: N

structure: Nc1c(C(=O)NCc2ccc(F)cc2)nnn1Cc1ccc(Br)cc1F
T1: N
T2: N
T3: N

structure: N#CC1=C(N)Oc2ccc3ccccc3c2C1c1ccccc1Cl (stereo not given)
T1: N
T2: N
T3: N

structure: CCOC(=O)C1=C(N)OC2=C(C(=O)CC(C)(C)C2)C12C(=O)Nc1ccc(Br)cc12 (stereo not given)
T1: N
T2: N
T3: N

structure: CC(=O)C1=C(C)OC(N)=C(C#N)C12C(=O)Nc1ccc(Cl)cc12 (stereo not given)
T1: N
T2: N
T3: N

structure: O=C(NCCO)c1nn(-c2ccc(F)cc2)nc1CO
T1: N
T2: N

structure: CCc1ccc(NC(=O)c2nnn(CC(=O)Nc3cccc(C)c3)c2N)cc1
T1: N
T2: N
T3: N

structure: COc1ccc(Nc2nc(N3CCCCC3)nc3c2cnn3C)cc1Cl
T1: N
T2: N

structure: c1cc(C2CCCC2)nc(N2CCOC3(CNCCOC3)C2)n1 (stereo not given)
T1: N
T2: N
T3: N

structure: CC1CCCC(C)N1CCNc1nc2ccccc2c2nc(-c3cccnc3)nn12 (stereo not given)
T1: N
T2: N

structure: Cc1cccc(OCC(O)Cn2c(C)nc3ccccc32)c1C (stereo not given)
T1: N
T2: N

structure: Cc1cccnc1CC(C)NCC(=O)NCc1ccccc1F (stereo not given)
T1: N
T2: N
T3: N

structure: O=C(O)c1ccc(Nc2c(-c3ccc(O)cc3)nc3cnccn23)cc1
T1: N
T2: N

structure: CN1C(=O)COc2c(C(=O)NC3CN4CCC3CC4)cc(Cl)cc21 (stereo not given)
T1: N
T2: N
T3: N

structure: Cc1nn(CCO)cc1CN1C[C@@H]2CC[C@H](C1)N(Cc1cscn1)C2=O
T1: N
T2: N
T3: N

structure: CCN1c2ccccc2C2=C(C(c3ccc(OC)cc3)C(C#N)=C(N)O2)S1(=O)=O (stereo not given)
T1: N
T2: N

structure: CN(C)CCN(C)C(=O)c1ccc(NC(=O)Nc2ccc(-c3nc(N4CCOCC4)c4ccn(CC(F)(F)F)c4n3)cc2)cc1
T1: N
T2: N
T3: N

structure: CC(C)Nc1cc(C(C)(C)C)nc2c(-c3ccccc3)cnn12
T1: N
T2: N

structure: COC(=O)CCCNc1cc(C)nc2nc(-c3ccc(Cl)cc3)nn12
T1: N
T2: N

structure: CCCc1cc(C(=O)N(CCO)Cc2c(C)nn(C)c2C)no1
T1: N
T2: N
T3: N

structure: CCCn1c(=N)n(CC(O)c2ccccc2)c2ccccc21 (stereo not given)
T1: N
T2: N
T3: N

structure: Cc1ccccc1-c1noc(-c2cccnc2NCc2ccco2)n1
T1: N
T2: N

structure: CCCCNc1ncccc1-c1nc(-c2ccc(C)cc2)no1
T1: N
T2: N

structure: C[C@]1(O)CCN(C(=O)Cc2ccc(Cl)c(Cl)c2)C[C@@H]1O
T1: N
T2: N
T3: N

structure: Cc1ccsc1CN1CCC2(CC1)Nc1ccccc1NC2=O
T1: N
T2: N
T3: N

structure: CCc1nc2oc(C(=O)c3ccc(Cl)cc3)c(N)c2c2c1COC(C)(C)C2
T1: N
T2: N
T3: N

structure: CC(C)(C)c1ccc(OCC(O)CN2CCCC2)cc1 (stereo not given)
T1: N
T2: N
T3: N

structure: O=C(NCCCNc1cccnc1)c1ccc2nccn2c1
T1: N
T2: N
T3: N

structure: Cc1ccc(CN2c3ccccc3C3=C(C(c4ccccc4F)C(C#N)=C(N)O3)S2(=O)=O)cc1 (stereo not given)
T1: N
T2: N

structure: COc1ccc(CNCCC(C(C)C)C2CCOC(C)(C)C2)cc1 (stereo not given)
T1: N
T2: N
T3: N

structure: CC(C1CCN(C(=O)c2cccc(CO)c2)CC1)N1CCCC1 (stereo not given)
T1: N
T2: N
T3: N

structure: Cc1ccc(OC2(C(=O)N(Cc3nccn3C)C(C)C)CCNCC2)cc1
T1: N
T2: N
T3: N

structure: Cc1cc2ncn(CC(O)COCc3ccccc3)c2cc1C (stereo not given)
T1: N
T2: N
T3: N

structure: COc1cccc(-c2nnc(N)o2)c1
T1: N
T2: N
T3: N

structure: Nc1ncccc1CN1CCCC(CNS(=O)(=O)c2cccs2)C1 (stereo not given)
T1: N
T2: N
T3: N

structure: C=C(C)COc1cccc(C(=O)N[C@H](CO)c2ccccc2)c1
T1: N
T2: N
T3: N

For reference, 4 entries once more:

structure	T1	T2	T3
Nc1c(C(=O)NCc2ccc(F)cc2)nnn1Cc1ccc(Br)cc1F	N	N	N
C[C@]1(O)CCN(C(=O)Cc2ccc(Cl)c(Cl)c2)C[C@@H]1O	N	N	N
CCc1ccc(NC(=O)c2nnn(CC(=O)Nc3cccc(C)c3)c2N)cc1	N	N	N
CSc1ccc(C2C(C#N)=C(N)Oc3cc4c(cc32)OCO4)cc1 (stereo not given)	N	N	N